Results: PubChem BioAssay AID330 (DTP/NCI, 2004)
The list is a part of this screen's results and no random one: it is rich in T/C values a quarter to a half above the control, in often repeated tests (any T/C) and in doses without a T/C. Further doses and runs are listed elsewhere. T/C gives the treated animals as a percentage of the vehicle group. Some entries give survivors of the animals treated and no T/C: the source files T/C as zero there, which appears to mark a toxic dose or a test without result, not a measured value. Some survivor counts are full or nearly so, which does not show that the dose was tolerated: the source hardly ever lists a survival T/C far under the control, and the zero likely stands for such cases as well. Survivors were counted at the toxicity check, usually on the fifth day, unless a day is given; later deaths do not show. Schedule codes are those of the source, read here as Q, the interval in days (D) or hours (H), X, the number of doses. Some entries were tested several times; the results are listed from low to high. For survival time, the PubChem record calls one and a half times the control and up active, and a quarter to a half above the control has no call in these data; cut-offs in other NCI protocols can differ. Some T/C values carry the count of animals alive at the toxicity check (mostly the fifth day); without a count, all were alive then.

Tested on: P388 leukemia ip, CD2F1 mice, survival T/C
Assay: NCI In Vivo Anticancer Drug Screen. Data for tumor model P388 Leukemia (intraperitoneal) in CD2F1 (CDF1) mice
Details: T/C endpoint: median survival time, higher T/C = longer survival
[1] = dose: 200.0 mg/kg/injection, schedule: Q01DX001 (ip), vehicle: saline with Tween-80
[2] = dose: 400.0 mg/kg/injection, schedule: Q01DX001 (ip), vehicle: saline with Tween-80
[3] = dose: 200.0 mg/kg/injection, schedule: Q01DX009 (ip), vehicle: Klucel (hydroxypropylcellulose) (HPC)
[4] = dose: 200.0 mg/kg/injection, schedule: Q01DX009 (ip), vehicle: saline with Tween-80
[5] = dose: 12.5 mg/kg/injection, schedule: Q01DX009 (ip), vehicle: Klucel (hydroxypropylcellulose) (HPC)
[6] = dose: 25.0 mg/kg/injection, schedule: Q01DX009 (ip), vehicle: Klucel (hydroxypropylcellulose) (HPC)
[7] = dose: 50.0 mg/kg/injection, schedule: Q01DX009 (ip), vehicle: Klucel (hydroxypropylcellulose) (HPC)
[8] = dose: 12.5 mg/kg/injection, schedule: Q01DX009 (ip), vehicle: other
[9] = dose: 25.0 mg/kg/injection, schedule: Q01DX009 (ip), vehicle: other
[10] = dose: 100.0 mg/kg/injection, schedule: Q04DX002 (ip), vehicle: saline with Tween-80
[11] = dose: 200.0 mg/kg/injection, schedule: Q04DX002 (ip), vehicle: saline with Tween-80
[12] = dose: 600.0 mg/kg/injection, schedule: Q01DX009 (ip), vehicle: saline
[13] = dose: 100.0 mg/kg/injection, schedule: Q01DX009 (ip), vehicle: Klucel (hydroxypropylcellulose) (HPC)

## O=C(O)c1ccc([N+](=O)[O-])cc1O.O=C(O)c1ccc([N+](=O)[O-])cc1O.[Cu]
dose: 100.0 mg/kg/injection, schedule: Q01DX001 (ip), vehicle: saline with Tween-80
  survivor count: 0 of 6
[1]
  survivor count: 0 of 6
[2]
  survivor count: 0 of 6

## CCOC(=O)C(=O)Nc1cccc(NC(=O)C(=O)OCC)n1
dose: 240.0 mg/kg/injection, schedule: Q01DX005 (ip), vehicle: saline with Tween-80
  survivor count: 4 of 6

## COc1ccc(/C=C(/C)[N+](=O)[O-])cc1OC
dose: 50.0 mg/kg/injection, schedule: Q01DX009 (ip), vehicle: saline
  T/C: 125 % of control
dose: 100.0 mg/kg/injection, schedule: Q01DX009 (ip), vehicle: saline
  T/C: 130 % of control

## N#CSc1ccc2nc(NCO)sc2c1
[3]
  survivor count: 2 of 6

## CC(C)NCC(O)CC(c1ccccc1)c1ccccc1 (stereo unspecified)
[4]
  survivor count: 0 of 6

## NC(N)=NC(N)=Nc1ccc2ccc3cccc4ccc1c2c34
dose: 400.0 mg/kg/injection, schedule: Q04DX003 (ip), vehicle: saline with Tween-80
  survivor count: 0 of 6

## C[n+]1ccc2cc(N)c3c4ccccc4sc3c2c1
dose: 6.25 mg/kg/injection, schedule: Q01DX009 (ip), vehicle: Klucel (hydroxypropylcellulose) (HPC)
  T/C: 133 % of control
[5]
  T/C: 139 % of control
[6]
  survivor count: 6 of 6
[7]
  survivor count: 0 of 6

## NS(=O)(=O)c1cc(Cl)cc(Cl)c1O
[4]
  survivor count: 0 of 6

## CCCC[NH-].CCCC[NH-].[I][Pt+2][I]
dose: 1.56 mg/kg/injection, schedule: Q01DX009 (ip), vehicle: other
  T/C: 128 and 132 % of control
dose: 3.13 mg/kg/injection, schedule: Q01DX009 (ip), vehicle: other
  T/C: 128 and 138 % of control
dose: 6.25 mg/kg/injection, schedule: Q01DX009 (ip), vehicle: other
  T/C: 129 and 138 % of control
[8]
  survivor count: 1 of 6 and 6 of 6
[9]
  survivor count: 0 of 6
dose: 50.0 mg/kg/injection, schedule: Q01DX009 (ip), vehicle: other
  survivor count: 0 of 6
dose: 100.0 mg/kg/injection, schedule: Q01DX009 (ip), vehicle: other
  survivor count: 0 of 6
dose: 200.0 mg/kg/injection, schedule: Q01DX009 (ip), vehicle: other
  survivor count: 0 of 6

## O=NNc1ccc(Sc2ccc(NN=O)cn2)nc1
dose: 25.0 mg/kg/injection, schedule: Q01DX009 (ip), vehicle: saline
  T/C: 126 % of control

## O=C1c2cc3c(-c4ccccc4)sc(-c4ccccc4)c3cc2C(=O)c2c(O)ccc(O)c21
[10]
  survivor count: 6 of 6
[11]
  survivor count: 6 of 6

## COc1ccccc1N1C(=O)CSC1=S
dose: 400.0 mg/kg/injection, schedule: Q01DX009 (ip), vehicle: saline with Tween-80
  survivor count: 5 of 6

## COc1cccc2c1C(=O)c1c(O)c3c(c(O)c1C2=O)C[C@@](O)(/C(CO)=N/NC(=O)c1ccccc1)C[C@@H]3OC1CC(N)C(O)C(C)O1 (stereo partly specified)
dose: 0.5 mg/kg/injection, schedule: Q01DX009 (ip), vehicle: water
  T/C: 126 % of control
dose: 6.5 mg/kg/injection, schedule: Q01DX009 (ip), vehicle: saline
  T/C: 130 % of control
dose: 12.0 mg/kg/injection, schedule: Q04DX003 (ip), vehicle: water
  T/C: 133 % of control
dose: 16.0 mg/kg/injection, schedule: Q01DX009 (ip), vehicle: water
  T/C: 128 % of control
dose: 24.0 mg/kg/injection, schedule: Q04DX003 (ip), vehicle: water
  T/C: 133 % of control
dose: 30.0 mg/kg/injection, schedule: Q01DX009 (ip), vehicle: saline
  survivor count: 4 of 6
dose: 48.0 mg/kg/injection, schedule: Q04DX003 (ip), vehicle: water
  T/C: 146 % of control

## Cn1c2ccccc2c2nnc(N/N=C/c3cccs3)nc21
[10]
  survivor count: 6 of 6
[11]
  survivor count: 6 of 6

## C#CCCCOCOCCOC
dose: 240.0 mg/kg/injection, schedule: Q01DX005 (ip), vehicle: saline
  survivor count: 3 of 6

## C1CCC2C(C1)CCC1CCCCC12 (stereo unspecified)
[2]
  T/C: 126 % of control

## NCCc1ccc(O)c(O)c1
dose: 150.0 mg/kg/injection, schedule: Q01DX009 (ip), vehicle: saline
  T/C: 129 and 140 % of control
dose: 300.0 mg/kg/injection, schedule: Q01DX009 (ip), vehicle: saline
  T/C: 137 [5 of 6 alive] and 140 % of control
[12]
  T/C: 138 % of control
  survivor count: 3 of 6
dose: 1200.0 mg/kg/injection, schedule: Q01DX009 (ip), vehicle: saline
  survivor count: 2 of 6

## CC12CCC(O)CC1CCC1C2CCC2(C)C(c3ccc(=O)oc3)CCC12O (stereo unspecified)
dose: 5.0 mg/kg/injection, schedule: Q01DX009 (ip), vehicle: saline with Tween-80
  survivor count: 3 of 6

## CN=NNc1ccc([N+](=O)[O-])cc1
[5]
  survivor count: 0 of 6
[6]
  survivor count: 0 of 6
[7]
  survivor count: 0 of 6
[13]
  T/C: 140 % of control
  survivor count: 0 of 6
[3]
  survivor count: 0 of 6 and 3 of 6

## CN(C)C1CC(C)(O)Cc2cc3c(c(O)c21)C(=O)c1c(O)cc2c(c1C3=O)OC1OC2(C)C(O)C(N(C)C)C1O (stereo unspecified)
[8]
  T/C: 132 % of control
[9]
  T/C: 141 % of control

## C=C(Cl)CNc1ccccc1C(=O)O
dose: 200.0 mg/kg/injection, schedule: Q04DX003 (ip), vehicle: Klucel (hydroxypropylcellulose) (HPC)
  survivor count: 6 of 6
dose: 400.0 mg/kg/injection, schedule: Q04DX003 (ip), vehicle: Klucel (hydroxypropylcellulose) (HPC)
  survivor count: 6 of 6

## CCCCC(CCCCCC(CCCC)C1NC(C)Cc2cc(OC)c(OC)cc21)C1NC(C)Cc2cc(OC)c(OC)cc21 (stereo unspecified)
dose: 50.0 mg/kg/injection, schedule: Q01DX005 (ip), vehicle: suspension in saline
  survivor count: 3 of 5
dose: 100.0 mg/kg/injection, schedule: Q01DX005 (ip), vehicle: suspension in saline
  survivor count: 2 of 5
dose: 200.0 mg/kg/injection, schedule: Q01DX005 (ip), vehicle: suspension in saline
  survivor count: 0 of 5

## N=C(N)c1ccc2cc(/C=C/c3cc4ccc(C(=N)N)cc4o3)oc2c1
dose: 25.0 mg/kg/injection, schedule: Q04DX003 (ip), vehicle: suspension in saline
  T/C: 131 % of control [5 of 6 alive]
dose: 50.0 mg/kg/injection, schedule: Q04DX003 (ip), vehicle: suspension in saline
  T/C: 140 % of control
dose: 100.0 mg/kg/injection, schedule: Q04DX003 (ip), vehicle: suspension in saline
  T/C: 140 % of control
dose: 200.0 mg/kg/injection, schedule: Q04DX003 (ip), vehicle: suspension in saline
  survivor count: 2 of 6
dose: 400.0 mg/kg/injection, schedule: Q04DX003 (ip), vehicle: suspension in saline
  survivor count: 0 of 6

## COc1cc(OC)cc(C2OC3=C(Nc4ccccc4N3)C2=O)c1 (stereo unspecified)
dose: 240.0 mg/kg/injection, schedule: Q01DX005 (ip), vehicle: Klucel (hydroxypropylcellulose) (HPC)
  survivor count: 6 of 6

## COc1cc(C(O)(CCN2CCOCC2)c2ccc3c(c2)OCO3)cc(OC)c1OC (stereo unspecified)
dose: 200.0 mg/kg/injection, schedule: Q01DX005 (ip), vehicle: Klucel (hydroxypropylcellulose) (HPC)
  survivor count: 6 of 6

## c1ccc2cc3c(cc2c1)Cn1c-3nc2ccccc21
dose: 100.0 mg/kg/injection, schedule: Q04DX003 (ip), vehicle: saline with Tween-80
  survivor count: 4 of 6

## O=C1C(Cl)=C(Cl)C(=O)C(/C=C/N2CCOCC2)=C1Cl
[1]
  survivor count: 0 of 6
[2]
  survivor count: 0 of 6

## COc1ccccc1NC(=O)N(CCCl)N=O
dose: 1.5 mg/kg/injection, schedule: Q04DX003 (ip), vehicle: saline with Tween-80
  T/C: 145 % of control
dose: 25.0 mg/kg/injection, schedule: Q04DX003 (ip), vehicle: saline with Tween-80
  T/C: 128 % of control

## CN=C(NC)Nc1nc(-c2ccccc2)c(-c2ccccc2)[nH]1
[10]
  survivor count: 1 of 6
[11]
  survivor count: 1 of 6
dose: 400.0 mg/kg/injection, schedule: Q04DX002 (ip), vehicle: saline with Tween-80
  survivor count: 0 of 6
